Reference: publication PMC5844915
Results are given in words; binding and its absence hold for the method and conditions named. In cells and extracts the contact can be indirect. Some binding calls cover weakened binding; strength is not graded here.

Sequences of proteins named here, by UniProt entry; tags and fusion partners are left off.
UniProt Q8WWM9: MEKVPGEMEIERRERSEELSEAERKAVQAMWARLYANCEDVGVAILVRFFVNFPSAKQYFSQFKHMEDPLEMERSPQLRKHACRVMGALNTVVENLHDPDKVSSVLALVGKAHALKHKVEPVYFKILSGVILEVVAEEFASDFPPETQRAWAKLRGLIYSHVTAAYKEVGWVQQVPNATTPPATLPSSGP
UniProt O15392: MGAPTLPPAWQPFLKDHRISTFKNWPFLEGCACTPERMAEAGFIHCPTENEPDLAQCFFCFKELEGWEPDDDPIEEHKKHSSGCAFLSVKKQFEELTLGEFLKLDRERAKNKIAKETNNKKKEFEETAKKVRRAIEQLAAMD

B1: iRHOM2 (protein, UniProt Q6PJF5 1-856)
chain: MASADKNGGSVSSVSSSRLQSRKPPNLSITIPPPEKETQAPGEQDSMLPEGFQNRRLKKSQPRTWAAHTTACPPSFLPKRKNPAYLKSVSLQEPRSRWQESSEKRPGFRRQASLSQSIRKGAAQWFGVSGDWEGQRQQWQRRSLHHCSMRYGRLKASCQRDLELPSQEAPSFQGTESPKPCKMPKIVDPLARGRAFRHPEEMDRPHAPHPPLTPGVLSLTSFTSVRSGYSHLPRRKRMSVAHMSLQAAAALLKGRSVLDATGQRCRVVKRSFAFPSFLEEDVVDGADTFDSSFFSKEEMSSMPDDVFESPPLSASYFRGIPHSASPVSPDGVQIPLKEYGRAPVPGPRRGKRIASKVKHFAFDRKKRHYGLGVVGNWLNRSYRRSISSTVQRQLESFDSHRPYFTYWLTFVHVIITLLVICTYGIAPVGFAQHVTTQLVLRNKGVYESVKYIQQENFWVGPSSIDLIHLGAKFSPCIRKDGQIEQLVLRERDLERDSGCCVQNDHSGCIQTQRKDCSETLATFVKWQDDTGPPMDKSDLGQKRTSGAVCHQDPRTCEEPASSGAHIWPDDITKWPICTEQARSNHTGFLHMDCEIKGRPCCIGTKGSCEITTREYCEFMHGYFHEEATLCSQVHCLDKVCGLLPFLNPEVPDQFYRLWLSLFLHAGVVHCLVSVVFQMTILRDLEKLAGWHRIAIIFILSGITGNLASAIFLPYRAEVGPAGSQFGLLACLFVELFQSWPLLERPWKAFLNLSAIVLFLFICGLLPWIDNIAHIFGFLSGLLLAFAFLPYITFGTSDKYRKRALILVSLLAFAGLFAALVLWLYIYPINWPWIEHLTCFPFTSRFCEKYELDQVLH

What was measured:
[1] = target: T1, iRHOM2 (human (endogenous in control keratinocytes)) (UniProt Q6PJF5); test: co-IP; endogenous proteins; 2 mg control keratinocyte lysate with 2 µg antibody and Sepharose protein G overnight at 4 °C; washed in NP-40 wash buffer (50 mM Tris pH 8.0, 150 mM NaCl, 1 mM EDTA, 1% NP40); rabbit IgG as control; immunoblot
T1 sequence: B1 chain

[2] = target: Cytoglobin (human (endogenous in control keratinocytes)) (UniProt Q8WWM9); test: proximity ligation; Duolink in situ kit on fixed control keratinocytes (methanol acetone or PFA); primary antibodies overnight at 4 °C; confocal microscopy; no primary antibodies as negative control
[3] = target: Cytoglobin (human (endogenous in control keratinocytes)) (UniProt Q8WWM9); test: co-IP; endogenous proteins; 2 mg control keratinocyte lysate with 2 µg antibody and Sepharose protein G overnight at 4 °C; washed in NP-40 wash buffer (50 mM Tris pH 8.0, 150 mM NaCl, 1 mM EDTA, 1% NP40); rabbit IgG as control; immunoblot
[4] = target: SURVIVIN (human (endogenous in control keratinocytes)) (UniProt O15392); test: as above

Row | Molecule | binding [1] | binding [2] | binding [3] | binding [4]
1 | SURVIVIN (from UniProt O15392 1-142) | binds |  |  | 
2 | B1 |  | binds | binds | binds
